Measurements reported in PubChem BioAssay AID272 (DTP/NCI, 2004).
The list shows only some results of the screen, not a fair sample: it is rich in T/C values a quarter to a half above the control, in often repeated tests (any T/C) and in doses without a T/C. Further doses and runs are listed elsewhere. T/C gives the treated animals as a percentage of the vehicle group. Some entries give survivors of the animals treated and no T/C: the source files T/C as zero there, which appears to mark a toxic dose or a test without result, not a measured value. Some doses without a T/C left all or most animals alive at the check, yet need not have been tolerated: the source hardly ever lists a survival T/C far under the control, and the zero likely stands for such cases as well. Survivors were counted at the toxicity check, usually on the fifth day, unless a day is given; later deaths do not show. Schedule codes are those of the source, taken here to give the interval after Q, in days (D) or hours (H), and the number of doses after X. Counts like (3×) give the number of equal values in this list. For survival time, this PubChem deposit counts one and a half times the control or more as active, and values a quarter to a half above the control carry no call in these data; other NCI protocols may use other cut-offs.

Test system: Lewis lung carcinoma i.m., BDF1 mice, T/C %
Test: NCI In Vivo Anticancer Drug Screen. Data for tumor model Lewis Lung Carcinoma (intramuscular) in B6D2F1 (BDF1) mice
Conditions: schedule: Q01DX011 (ip)
Method in brief: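 Tumour-bearing mice were dosed with compound, and either their survival or their tumour size was measured. Results were expressed relative to vehicle-treated controls as T/C.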

With `Cc1c(N)nc(C(CC(N)=O)NCC(N)C(N)=O)nc1C(=O)NC(C(=O)NC(C)C(O)C(C)C(=O)NC(C(=O)NCCc1nc(-c2nc(C(=O)NCCCNCCCCN)cs2)cs1)C(C)O)C(OC1OC(CO)C(O)C(O)C1OC1OC(CO)C(O)C(OC(N)=O)C1O)c1cnc[nH]1` (stereo not drawn) the T/C (T/C endpoint: median survival time, dose: 2.3 mg/kg/injection, vehicle: saline, higher T/C = longer survival) was 131 % of control, the T/C (T/C endpoint: median survival time, dose: 6.5 mg/kg/injection, vehicle: saline, higher T/C = longer survival) was 147 % of control and the survivor count (T/C endpoint: median survival time, dose: 30.0 mg/kg/injection, vehicle: saline, higher T/C = longer survival) was 7 of 8. For the same compound, the survivor count (T/C endpoint: median survival time, dose: 50.0 mg/kg/injection, vehicle: saline, higher T/C = longer survival) was 0 of 8.
With `Nc1nc(CCl)nc(Nc2ccccc2)n1` the survivor count (T/C endpoint: mean tumor weight (est.), dose: 200.0 mg/kg/injection, vehicle: saline with Tween-80, higher T/C = larger tumour) was 5 of 8, the survivor count (T/C endpoint: mean tumor weight (est.), dose: 400.0 mg/kg/injection, vehicle: saline with Tween-80, higher T/C = larger tumour) was 4 of 8 and the survivor count (T/C endpoint: median survival time, dose: 200.0 mg/kg/injection, vehicle: saline with Tween-80, higher T/C = longer survival) was 5 of 8. The survivor count (T/C endpoint: median survival time, dose: 400.0 mg/kg/injection, vehicle: saline with Tween-80, higher T/C = longer survival) was 4 of 8.
For `CCCCCCCCCCCC(c1ccccc1)[N+](C)(C)Cc1ccccc1` (stereo not drawn), the survivor count (T/C endpoint: mean tumor weight (est.), dose: 2.0 mg/kg/injection, vehicle: saline, higher T/C = larger tumour) was 2 of 8, the survivor count (T/C endpoint: median survival time, dose: 2.0 mg/kg/injection, vehicle: saline, higher T/C = longer survival) was 2 of 8 and the survivor count (T/C endpoint: median survival time, dose: 4.0 mg/kg/injection, vehicle: saline, higher T/C = longer survival) was 0 of 8.
For `COc1ccc(C(=O)/C(Br)=C/C(=O)O)cc1`, the survivor count (T/C endpoint: mean tumor weight, dose: 20.0 mg/kg/injection, vehicle: saline, higher T/C = larger tumour) was 5 of 8, the survivor count (T/C endpoint: median survival time, dose: 20.0 mg/kg/injection, vehicle: saline, higher T/C = longer survival) was 5 of 8 and the survivor count (T/C endpoint: median survival time, dose: 40.0 mg/kg/injection, vehicle: saline, higher T/C = longer survival) was 6 of 8. The survivor count (T/C endpoint: median survival time, dose: 80.0 mg/kg/injection, vehicle: saline, higher T/C = longer survival) was 0 of 8 and the survivor count (T/C endpoint: median survival time, dose: 160.0 mg/kg/injection, vehicle: saline, higher T/C = longer survival) was 0 of 8.
For `CCCCn1cnc2c(=S)nc[nH]c21`, the survivor count (T/C endpoint: mean tumor weight, dose: 3.12 mg/kg/injection, vehicle: other, higher T/C = larger tumour) was 5 of 8, the survivor count (T/C endpoint: mean tumor weight, dose: 12.5 mg/kg/injection, vehicle: other, higher T/C = larger tumour) was 5 of 8 and the survivor count (T/C endpoint: mean tumor weight, dose: 25.0 mg/kg/injection, vehicle: other, higher T/C = larger tumour) was 3 of 8. The survivor count (T/C endpoint: mean tumor weight, dose: 50.0 mg/kg/injection, vehicle: other, higher T/C = larger tumour) was 3 of 8, the survivor count (T/C endpoint: mean tumor weight, dose: 100.0 mg/kg/injection, vehicle: other, higher T/C = larger tumour) was 2 of 8 and the survivor count (T/C endpoint: median survival time, dose: 3.12 mg/kg/injection, vehicle: other, higher T/C = longer survival) was 5 of 8. For the same compound, the survivor count (T/C endpoint: median survival time, dose: 12.5 mg/kg/injection, vehicle: other, higher T/C = longer survival) was 5 of 8, the survivor count (T/C endpoint: median survival time, dose: 25.0 mg/kg/injection, vehicle: other, higher T/C = longer survival) was 3 of 8 (2×) and the survivor count (T/C endpoint: median survival time, dose: 50.0 mg/kg/injection, vehicle: other, higher T/C = longer survival) was 3 of 8. The survivor count (T/C endpoint: median survival time, dose: 100.0 mg/kg/injection, vehicle: other, higher T/C = longer survival) was 2 of 8, the survivor count (T/C endpoint: median survival time, dose: 200.0 mg/kg/injection, vehicle: other, higher T/C = longer survival) was 0 of 8 and the survivor count (T/C endpoint: median survival time, dose: 400.0 mg/kg/injection, vehicle: other, higher T/C = longer survival) was 0 of 8.
